PubChem BioAssay AID1259254 | NCATS | 2017

Purpose: 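Gene knock-downs that lead to re-replication, shown by excess G2 DNA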 (primary screen)
Cell system: human HCT116 colorectal cancer cells
Reagents: single siRNA against human genes
Time to read-out: 3 days
Read-out: 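Imaged Hoechst DNA stain sorts each cell into a cycle phase by DNA amount; per plate, G2 fraction set to 0% for non-targeting and 100% for GMNN siRNA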
Direction: G2 robust z-score and G2 cells, % of GMNN control: higher = more G2 cells, more excess DNA replication; raw share of cells in G2: higher = larger share of cells with G2 DNA content
Hit rule: 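Active siRNAs have a G2 robust z of 5 or more median absolute deviations over the median, which in these data means about 38% or higher of GMNN control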
Shown is an unselected part of about 59,000 reagents. About 1,550 of them (2.6%) were called active. 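G2 share is only a proxy for re-replication; each gene was hit by three separate siRNAs, and active genes were retested.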 The raw values are shown without normalisation. Unmarked entries are inactive. Reagents against one gene are numbered here. Not given: the amount of reagent.

The opening 10 entries, ahead of the listing:
gene symbol	reagent no.	G2 robust z-score	G2 cells, % of GMNN control	raw share of cells in G2 (%)
EML1	1	-0.782	-2.53	4.11
EML1	2	-0.952	-3.73	2.72
EML1	3	-0.523	-0.71	3.24
SLC9A1	1	1.45	13.2	10.1
SLC9A1	2	0.215	4.48	6.08
SLC9A1	3	0.163	4.11	5.32
LOC100128762	1	-0.977	-3.9	1.94
LOC100128762	2	-0.152	1.9	3.76
LOC100128762	3	1.7	14.9	9.39
ZNF609	1	-1.53	-7.82	1.92

The list itself, from the start:
gene symbol	reagent no.	G2 robust z-score	G2 cells, % of GMNN control	raw share of cells in G2 (%)
EML1	1	-0.782	-2.53	4.11
EML1	2	-0.952	-3.73	2.72
EML1	3	-0.523	-0.71	3.24
SLC9A1	1	1.45	13.2	10.1
SLC9A1	2	0.215	4.48	6.08
SLC9A1	3	0.163	4.11	5.32
LOC100128762	1	-0.977	-3.9	1.94
LOC100128762	2	-0.152	1.9	3.76
LOC100128762	3	1.7	14.9	9.39
ZNF609	1	-1.53	-7.82	1.92
ZNF609	2	0.43	6	6.61
ZNF609	3	-0.906	-3.41	1.9
ZSCAN5A	1	7.51 (active)	55.8	31.1
ZSCAN5A	2	4.62	35.5	15.3
ZSCAN5A	3	0.0428	3.27	4.66
SP6	1	0.466	6.24	5
SP6	2	-0.71	-2.03	4.99
SP6	3	0.675	7.72	6.06
CYREN	1	-0.409	0.0893	4.62
CYREN	2	4.22	32.7	19.3
CYREN	3	0.507	6.54	4.42
SLC16A6	1	-0.687	-1.87	4.61
SLC16A6	2	-0.422	-0.00238	4.54
SLC16A6	3	-0.889	-3.29	3.53
LOC100288254	1	-0.574	-1.07	3.42
LOC100288254	2	0.153	4.04	5.12
LOC100288254	3	0.00978	3.04	6.05
ADSS1	1	1.31	12.2	11.3
ADSS1	2	1.3	12.1	10.2
ADSS1	3	-0.016	2.85	5.56
SLC2A8	1	-0.237	1.3	6.75
SLC2A8	2	0.181	4.24	5.6
SLC2A8	3	-0.246	1.24	4.39
SNAPIN	1	-1.6	-8.31	3.03
SNAPIN	2	-0.206	1.52	4.66
SNAPIN	3	-0.032	2.74	4.8
CFAP107	1	0.679	7.74	7.37
CFAP107	2	1.66	14.6	7.59
CFAP107	3	-0.291	0.923	3.22
NTF4	1	-0.84	-2.94	3.72
NTF4	2	-0.218	1.43	4.79
NTF4	3	-0.715	-2.06	2.61
VPS9D1	1	7.33 (active)	54.5	30
VPS9D1	2	0.684	7.78	7.19
VPS9D1	3	-0.234	1.32	3.89
USH2A	1	3.08	24.6	13.2
USH2A	2	0.1	3.67	6.57
USH2A	3	-0.364	0.405	3.25
NUGGC	1	0.478	6.33	5.94
NUGGC	2	1.44	13.1	9.1
NUGGC	3	0.573	7	7.63
MKRN3	1	1.19	11.3	8.21
MKRN3	2	-0.587	-1.16	3.83
MKRN3	3	3.65	28.7	17.7
NLRP2	1	-0.00595	2.93	5.65
NLRP2	2	2.26	18.8	11.9
NLRP2	3	-0.633	-1.48	2.66
ATP6V0A4	1	0.448	6.12	6.15
ATP6V0A4	2	0.701	7.9	9.54
ATP6V0A4	3	-1.53	-7.81	1.36
LELP1	1	-0.67	-1.75	2.46
LELP1	2	1.34	12.4	7.97
LELP1	3	-0.924	-3.54	1.82
VPS16	1	1.95	16.7	12.5
VPS16	2	2.14	18	10.7
VPS16	3	-0.431	-0.0625	4.2
NLRP1	1	1.43	13	10.1
NLRP1	2	0.0523	3.34	5.51
NLRP1	3	-0.362	0.418	3.33
HPSE2	1	0.189	4.3	6.45
HPSE2	2	0.74	8.17	8.27
HPSE2	3	-0.216	1.45	3.08
ELOVL1	1	0.473	6.3	6.51
ELOVL1	2	-0.382	0.281	5.76
ELOVL1	3	-1.07	-4.53	2.74
RPH3AL	1	-1.25	-5.83	1.59
RPH3AL	2	-0.461	-0.277	5.86
RPH3AL	3	-0.753	-2.33	2.36
CA1	1	-0.574	-1.07	4.35
CA1	2	0.422	5.93	7.19
CA1	3	2.28	19	11.1
ZNF215	1	0.0824	3.55	4.71
ZNF215	2	0.0197	3.11	7.37
ZNF215	3	1.27	11.9	8.33
MARCHF8	1	-0.878	-3.21	4.43
MARCHF8	2	2.59	21.2	12.5
MARCHF8	3	0.846	8.92	8.45
